Data as given in PubChem BioAssay AID662 (National Center for Advancing Translational Sciences (NCATS), 2007).
Some of the results follow. Further columns of the screen follow, without active or inactive calls. The list favours compounds with an active or inconclusive main result. Words in brackets tell the shape of the fitted curve; partial curves, single points and poor fits give uncertain potencies.

Assay: Cell signaling CRE-BLA (Fsk stim)
Details: CHO CRE-bla reporter (cAMP response element driving beta-lactamase), forskolin EC10, beta-lactamase ratio; measured here: 460 nm blue channel
Summary of the method: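 Reporter-gene assay: CHO cells with beta-lactamase behind cAMP responsive elements, co-treated with compound and EC10 NKH 477 for 3 hours at 37 degrees Celsius. Activity came from the 460/530 nm CCF4 emission ratio.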

SMILES | AC50
CCNc1ncc2nc(-c3ccc(OC)cc3)c(=O)n(C[C@H]3CCCO3)c2n1 | 3.98 µM [rising, partial curve]
CCn1c(=O)c2[nH]c(-c3ccccc3)nc2n(CC)c1=O | 5.01 µM [rising, partial curve]
COC(=O)C(CCSC)NC(=O)CNC(=O)C1CCCCC1 (centres undefined) | 0.316 µM [falling, single point]
COc1ccc(CCC(=O)N2CCN(C3CCCCC3)CC2)cc1 | 0.00631 µM [falling, full curve, poor fit]
Cc1cc(NC(=O)CSc2nnc(-c3ccc(Cl)s3)o2)no1 | 0.2 µM [falling, partial curve]
CN1CCN(c2ncc3nc(-c4cccs4)c(=O)n(C[C@H]4CCCO4)c3n2)CC1 | 10 µM [rising, partial curve]
CCc1c2c(nc3cccc(C(C)C)c13)-c1cccc(=O)n1C2 | 10 µM [rising, partial curve]
CCCCCn1c(CN2CCN(c3cc(Cl)ccc3C)CC2)nc2c1c(=O)[nH]c(=O)n2C | 6.31 µM [rising, partial curve]
CCOc1ccc(-c2nc(C#N)c(NCc3ccc4c(c3)OCO4)o2)cc1 | 7.94 µM [rising, partial curve]
COc1cc(=O)n(C)c2cc(N(C)C)ccc12 | 15.8 µM [rising, single point]
CCOc1cc2[nH]c(=O)n(CC3CCC(C(=O)NC(C)CC)CC3)c(=O)c2cc1OCC (centres undefined) | 0.794 µM [rising, full curve]
COc1ccc(-n2c(=O)c(-c3ccccc3)nc3cnc(N4CCNCC4)nc32)cc1 | 10 µM [rising, partial curve]
O=S(=O)(c1cccc(F)c1)N1CCN(Cc2ccc3c(c2)OCO3)CC1 | 15.8 µM [rising, single point]
CC(=O)Nc1cccc2c1C(=O)NC2=O | 0.1 µM [falling, full curve, poor fit]
COc1ccc(-c2nc3cnc(N4CCOCC4)nc3n(-c3ccccc3)c2=O)cc1 | 0.398 µM [rising, full curve]
Cc1onc(-c2ccccc2Cl)c1C(=O)NCCN1Cc2ccccc2C1=O | 0.00794 µM [falling, full curve]
CS(=O)(=O)Nc1cccc(-c2ccc3ncnc(Nc4ccc(F)cc4)c3c2)c1 | 12.6 µM [rising, partial curve]
COc1ccccc1-c1nc(NCc2cccs2)c2ccccc2n1 | 12.6 µM [rising, partial curve]
COc1ccc(-n2c(SCC#N)nc3ccccc3c2=O)cc1 | 10 µM [rising, single point]

Another view of part of the listing above.
SMILES	AC50
CS(=O)(=O)Nc1cccc(-c2ccc3ncnc(Nc4ccc(F)cc4)c3c2)c1	12.6 µM [rising, partial curve]
COc1ccccc1-c1nc(NCc2cccs2)c2ccccc2n1	12.6 µM [rising, partial curve]
